No constants are given. Whether binding was seen depends on the method and setting. Binding seen in cells or lysates may run through a third protein. A yes stands for co-enrichment or nearness to the bait. Other partners may have been found. For part of these data: A no says only that the protein was not detected with the bait. Tags and fused reporters may be left off the sequences shown.
Tests used:
[1] = target: T1, FLAG-tagged SopD2 (S. Typhimurium strain SL1344) (UniProt Q8ZQC8); assay: affinity purification with mass spectrometry
T1 sequence: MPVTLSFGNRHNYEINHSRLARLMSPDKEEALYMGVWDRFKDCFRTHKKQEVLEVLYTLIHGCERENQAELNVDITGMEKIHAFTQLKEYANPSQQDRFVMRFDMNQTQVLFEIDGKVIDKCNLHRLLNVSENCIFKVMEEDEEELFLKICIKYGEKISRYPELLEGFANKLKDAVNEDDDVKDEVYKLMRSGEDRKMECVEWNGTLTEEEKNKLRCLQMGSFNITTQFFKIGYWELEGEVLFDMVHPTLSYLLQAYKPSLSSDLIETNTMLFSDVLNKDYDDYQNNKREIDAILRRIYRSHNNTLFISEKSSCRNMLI

Amino acid sequences for entries named in this document (tags omitted).
UniProt Q00610: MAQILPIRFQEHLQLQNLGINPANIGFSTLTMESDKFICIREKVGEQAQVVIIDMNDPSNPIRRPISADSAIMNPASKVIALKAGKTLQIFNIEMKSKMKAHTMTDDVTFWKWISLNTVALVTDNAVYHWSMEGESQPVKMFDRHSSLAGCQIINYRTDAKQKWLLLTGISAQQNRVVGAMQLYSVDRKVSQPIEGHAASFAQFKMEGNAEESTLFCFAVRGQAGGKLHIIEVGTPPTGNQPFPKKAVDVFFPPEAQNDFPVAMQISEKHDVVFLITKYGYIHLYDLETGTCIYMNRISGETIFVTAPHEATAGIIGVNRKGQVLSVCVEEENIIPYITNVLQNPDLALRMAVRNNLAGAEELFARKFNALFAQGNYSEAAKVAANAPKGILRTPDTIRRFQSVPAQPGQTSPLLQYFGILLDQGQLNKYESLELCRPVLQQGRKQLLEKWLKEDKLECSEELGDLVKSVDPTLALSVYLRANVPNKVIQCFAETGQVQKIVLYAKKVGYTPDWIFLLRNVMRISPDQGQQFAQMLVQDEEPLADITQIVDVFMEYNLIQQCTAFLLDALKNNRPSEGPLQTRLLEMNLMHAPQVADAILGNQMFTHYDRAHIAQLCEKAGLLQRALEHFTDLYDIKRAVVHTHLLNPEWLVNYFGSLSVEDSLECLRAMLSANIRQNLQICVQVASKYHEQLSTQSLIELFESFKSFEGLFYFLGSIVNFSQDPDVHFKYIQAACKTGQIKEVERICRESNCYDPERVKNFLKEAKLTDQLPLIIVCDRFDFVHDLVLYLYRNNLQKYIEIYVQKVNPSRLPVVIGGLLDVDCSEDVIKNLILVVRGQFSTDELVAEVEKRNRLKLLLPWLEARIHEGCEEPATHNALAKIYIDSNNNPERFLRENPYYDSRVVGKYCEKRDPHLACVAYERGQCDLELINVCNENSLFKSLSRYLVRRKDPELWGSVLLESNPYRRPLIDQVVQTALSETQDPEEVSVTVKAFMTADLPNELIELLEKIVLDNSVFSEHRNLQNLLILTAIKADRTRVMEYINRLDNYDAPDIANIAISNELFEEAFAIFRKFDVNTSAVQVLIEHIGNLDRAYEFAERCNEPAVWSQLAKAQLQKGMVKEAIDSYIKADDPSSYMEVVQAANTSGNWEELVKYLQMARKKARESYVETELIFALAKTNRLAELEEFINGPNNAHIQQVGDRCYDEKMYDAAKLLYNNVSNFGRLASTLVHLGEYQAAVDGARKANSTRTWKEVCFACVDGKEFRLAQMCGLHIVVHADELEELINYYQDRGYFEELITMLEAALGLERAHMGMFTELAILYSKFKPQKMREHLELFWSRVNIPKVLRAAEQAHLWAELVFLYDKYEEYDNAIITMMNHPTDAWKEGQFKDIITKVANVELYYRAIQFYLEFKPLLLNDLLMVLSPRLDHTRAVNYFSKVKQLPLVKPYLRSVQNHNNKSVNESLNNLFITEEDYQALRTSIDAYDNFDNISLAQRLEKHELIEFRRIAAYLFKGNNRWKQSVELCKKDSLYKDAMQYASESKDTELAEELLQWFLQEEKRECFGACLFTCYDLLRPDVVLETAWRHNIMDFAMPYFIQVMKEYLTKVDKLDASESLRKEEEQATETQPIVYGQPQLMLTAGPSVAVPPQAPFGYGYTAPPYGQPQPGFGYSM

[2] = target: T2, FLAG-tagged SpvB (S. Typhimurium strain SL1344) (UniProt P21454); assay: affinity purification with mass spectrometry
T2 sequence: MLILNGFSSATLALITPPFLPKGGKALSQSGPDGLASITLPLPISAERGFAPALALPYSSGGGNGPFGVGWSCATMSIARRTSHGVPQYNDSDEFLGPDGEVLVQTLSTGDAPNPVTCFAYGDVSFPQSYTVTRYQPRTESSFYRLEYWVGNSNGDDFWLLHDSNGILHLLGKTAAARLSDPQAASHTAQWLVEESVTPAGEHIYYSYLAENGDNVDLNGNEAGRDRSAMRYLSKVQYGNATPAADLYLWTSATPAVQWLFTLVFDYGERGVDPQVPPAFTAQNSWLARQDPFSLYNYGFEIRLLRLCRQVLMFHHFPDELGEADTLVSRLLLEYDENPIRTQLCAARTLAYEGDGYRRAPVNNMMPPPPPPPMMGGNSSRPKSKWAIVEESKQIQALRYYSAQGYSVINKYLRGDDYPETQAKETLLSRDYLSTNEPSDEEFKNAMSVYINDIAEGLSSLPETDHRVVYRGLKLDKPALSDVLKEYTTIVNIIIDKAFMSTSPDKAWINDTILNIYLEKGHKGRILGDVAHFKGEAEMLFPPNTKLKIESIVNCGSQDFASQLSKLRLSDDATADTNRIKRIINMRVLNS

Molecule	binding [1]	binding [2]
AP-1γ (endogenous) (human (endogenous in HEK293T))	no binding	binds
AP-1μ (endogenous) (human (endogenous in HEK293T))	no binding	binds
clathrin heavy chain (endogenous) (from UniProt Q00610 1-1675)	no binding	binds
TAB2 (endogenous) (protein, UniProt Q9NYJ8 1-693) MAQGSHQIDFQVLHDLRQKFPEVPEVVVSRCMLQNNNNLDACCAVLSQESTRYLYGEGDLNFSDDSGISGLRNHMTSLNLDLQSQNIYHHGREGSRMNGSRTLTHSISDGQLQGGQSNSELFQQEPQTAPAQVPQGFNVFGMSSSSGASNSAPHLGFHLGSKGTSSLSQQTPRFNPIMVTLAPNIQTGRNTPTSLHIHGVPPPVLNSPQGNSIYIRPYITTPGGTTRQTQQHSGWVSQFNPMNPQQVYQPSQPGPWTTCPASNPLSHTSSQQPNQQGHQTSHVYMPISSPTTSQPPTIHSSGSSQSSAHSQYNIQNISTGPRKNQIEIKLEPPQRNNSSKLRSSGPRTSSTSSSVNSQTLNRNQPTVYIAASPPNTDELMSRSQPKVYISANAATGDEQVMRNQPTLFISTNSGASAASRNMSGQVSMGPAFIHHHPPKSRAIGNNSATSPRVVVTQPNTKYTFKITVSPNKPPAVSPGVVSPTFELTNLLNHPDHYVETENIQHLTDPTLAHVDRISETRKLSMGSDDAAYTQALLVHQKARMERLQRELEIQKKKLDKLKSEVNEMENNLTRRRLKRSNSISQIPSLEEMQQLRSCNRQLQIDIDCLTKEIDLFQARGPHFNPSAIHNFYDNIGFVGPVPPKPKDQRSIIKTPKTQDTEDDEGAQWNCTACTFLNHPALIRCEQCEMPRHF	–	binds
AP-1β (endogenous) (protein, UniProt Q10567 1-949) MTDSKYFTTTKKGEIFELKAELNSDKKEKKKEAVKKVIASMTVGKDVSALFPDVVNCMQTDNLELKKLVYLYLMNYAKSQPDMAIMAVNTFVKDCEDPNPLIRALAVRTMGCIRVDKITEYLCEPLRKCLKDEDPYVRKTAAVCVAKLHDINAQLVEDQGFLDTLKDLISDSNPMVVANAVAALSEIAESHPSSNLLDLNPQSINKLLTALNECTEWGQIFILDCLANYMPKDDREAQSICERVTPRLSHANSAVVLSAVKVLMKFMEMLSKDLDYYGTLLKKLAPPLVTLLSAEPELQYVALRNINLIVQKRPEILKHEMKVFFVKYNDPIYVKLEKLDIMIRLASQANIAQVLAELKEYATEVDVDFVRKAVRAIGRCAIKVEQSAERCVSTLLDLIQTKVNYVVQEAIVVIKDIFRKYPNKYESVIATLCENLDSLDEPEARAAMIWIVGEYAERIDNADELLESFLEGFHDESTQVQLQLLTAIVKLFLKKPTETQELVQQVLSLATQDSDNPDLRDRGYIYWRLLSTDPVAAKEVVLAEKPLISEETDLIEPTLLDELICYIGTLASVYHKPPSAFVEGGRGVVHKSLPPRTASSESAESPETAPTGAPPGEQPDVIPAQGDLLGDLLNLDLGPPVSGPPLATSSVQMGAVDLLGGGLDSLMGDEPEGIGGTNFVAPPTAAVPANLGAPIGSGLSDLFDLTSGVGTLSGSYVAPKAVWLPAMKAKGLEISGTFTRQVGSISMDLQLTNKALQVMTDFAIQFNRNSFGLAPAAPLQVHAPLSPNQTVEISLPLSTVGSVMKMEPLNNLQVAVKNNIDVFYFSTLYPLHILFVEDGKMDRQMFLATWKDIPNENEAQFQIRDCPLNAEAASSKLQSSNIFTVAKRNVEGQDMLYQSLKLTNGIWVLAELRIQPGNPSCTDLELSLKCRAPEVSQHVYQAYETILKN	no binding	binds

From publication PMC10696399
